The assay concerns the target hnRNPA2 (UniProt P22626). Kind of assay: microfluidic resistive pulse sensing (MRPS); fixed concentration of the RNA-binding protein above csat (2 μM FUS or FUS^P525L, 4 μM hnRNPA2) with increasing Kapβ2; MBP cleaved in situ by TEV, 1.5–2 h at room temperature; same buffers as for the proteins alone; both purified.

The chains behind the UniProt entries cited, without tags or fusion partners. Where a name states a change or a piece, a line headed by the entry shows the natural chain unless it says otherwise. A line that says so, or that is headed by a name, gives the form on record, which may keep a tag or linker.
hnRNPA2 (P22626, form named): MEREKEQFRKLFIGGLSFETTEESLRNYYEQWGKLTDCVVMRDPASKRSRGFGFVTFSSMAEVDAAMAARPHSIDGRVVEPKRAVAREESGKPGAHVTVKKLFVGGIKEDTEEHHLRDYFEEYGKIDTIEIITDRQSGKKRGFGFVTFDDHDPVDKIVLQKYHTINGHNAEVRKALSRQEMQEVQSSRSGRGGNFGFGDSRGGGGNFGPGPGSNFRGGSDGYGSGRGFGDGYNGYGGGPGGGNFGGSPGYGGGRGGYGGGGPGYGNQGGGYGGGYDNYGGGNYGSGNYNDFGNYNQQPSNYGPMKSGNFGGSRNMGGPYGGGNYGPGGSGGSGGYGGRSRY
UniProt Q92973: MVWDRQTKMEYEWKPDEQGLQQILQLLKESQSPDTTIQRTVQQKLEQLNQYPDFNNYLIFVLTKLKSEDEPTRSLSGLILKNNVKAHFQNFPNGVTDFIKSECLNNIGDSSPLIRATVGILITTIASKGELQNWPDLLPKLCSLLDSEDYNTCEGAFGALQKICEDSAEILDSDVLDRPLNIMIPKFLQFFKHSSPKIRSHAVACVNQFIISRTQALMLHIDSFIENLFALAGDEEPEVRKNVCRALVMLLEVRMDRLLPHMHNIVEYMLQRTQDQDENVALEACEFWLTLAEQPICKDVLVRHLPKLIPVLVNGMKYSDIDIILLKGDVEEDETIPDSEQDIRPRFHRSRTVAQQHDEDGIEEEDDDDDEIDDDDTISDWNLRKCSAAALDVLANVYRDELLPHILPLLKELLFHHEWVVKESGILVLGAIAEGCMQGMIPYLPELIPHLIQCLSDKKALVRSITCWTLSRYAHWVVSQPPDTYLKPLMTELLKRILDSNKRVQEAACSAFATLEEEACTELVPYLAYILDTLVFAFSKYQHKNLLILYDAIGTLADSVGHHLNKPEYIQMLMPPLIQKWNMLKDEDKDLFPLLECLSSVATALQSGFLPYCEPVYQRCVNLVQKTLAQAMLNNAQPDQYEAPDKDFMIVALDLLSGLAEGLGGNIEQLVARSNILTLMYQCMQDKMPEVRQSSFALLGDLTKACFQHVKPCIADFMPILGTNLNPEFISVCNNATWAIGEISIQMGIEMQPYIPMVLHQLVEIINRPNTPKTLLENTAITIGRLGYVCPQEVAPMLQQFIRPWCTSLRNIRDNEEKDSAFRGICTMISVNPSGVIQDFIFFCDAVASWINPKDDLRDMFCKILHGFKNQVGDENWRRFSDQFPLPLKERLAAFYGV

These are yes or no findings as the source states them, for the method shown. Some binding calls cover weakened binding; strength is not graded here.

Take “Karyopherin-β2 (from UniProt Q92973 1-898)”: the binding result is given as “binds”.
